Experiment [1] addresses T1, HA Nercc (1-391) (human) (UniProt Q8TD19).
T1 sequence: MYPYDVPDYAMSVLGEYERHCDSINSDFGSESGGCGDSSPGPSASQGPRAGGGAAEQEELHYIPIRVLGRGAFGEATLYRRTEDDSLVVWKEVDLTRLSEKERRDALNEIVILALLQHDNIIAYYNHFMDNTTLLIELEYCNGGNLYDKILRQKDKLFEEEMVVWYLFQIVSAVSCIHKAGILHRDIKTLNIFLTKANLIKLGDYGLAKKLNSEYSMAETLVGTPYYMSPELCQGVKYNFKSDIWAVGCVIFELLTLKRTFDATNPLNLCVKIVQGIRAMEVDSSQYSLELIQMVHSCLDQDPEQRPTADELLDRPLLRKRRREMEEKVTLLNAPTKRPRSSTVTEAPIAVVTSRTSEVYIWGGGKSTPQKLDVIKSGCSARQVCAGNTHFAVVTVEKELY
The experiment in a line: anti-FLAG immunoprecipitation from HEK293 cells, anti-HA blot.

The chains behind the UniProt entries cited, without tags or fusion partners. Where a name states a change or a piece, a line headed by the entry shows the natural chain unless it says otherwise.
UniProt Q8TD19: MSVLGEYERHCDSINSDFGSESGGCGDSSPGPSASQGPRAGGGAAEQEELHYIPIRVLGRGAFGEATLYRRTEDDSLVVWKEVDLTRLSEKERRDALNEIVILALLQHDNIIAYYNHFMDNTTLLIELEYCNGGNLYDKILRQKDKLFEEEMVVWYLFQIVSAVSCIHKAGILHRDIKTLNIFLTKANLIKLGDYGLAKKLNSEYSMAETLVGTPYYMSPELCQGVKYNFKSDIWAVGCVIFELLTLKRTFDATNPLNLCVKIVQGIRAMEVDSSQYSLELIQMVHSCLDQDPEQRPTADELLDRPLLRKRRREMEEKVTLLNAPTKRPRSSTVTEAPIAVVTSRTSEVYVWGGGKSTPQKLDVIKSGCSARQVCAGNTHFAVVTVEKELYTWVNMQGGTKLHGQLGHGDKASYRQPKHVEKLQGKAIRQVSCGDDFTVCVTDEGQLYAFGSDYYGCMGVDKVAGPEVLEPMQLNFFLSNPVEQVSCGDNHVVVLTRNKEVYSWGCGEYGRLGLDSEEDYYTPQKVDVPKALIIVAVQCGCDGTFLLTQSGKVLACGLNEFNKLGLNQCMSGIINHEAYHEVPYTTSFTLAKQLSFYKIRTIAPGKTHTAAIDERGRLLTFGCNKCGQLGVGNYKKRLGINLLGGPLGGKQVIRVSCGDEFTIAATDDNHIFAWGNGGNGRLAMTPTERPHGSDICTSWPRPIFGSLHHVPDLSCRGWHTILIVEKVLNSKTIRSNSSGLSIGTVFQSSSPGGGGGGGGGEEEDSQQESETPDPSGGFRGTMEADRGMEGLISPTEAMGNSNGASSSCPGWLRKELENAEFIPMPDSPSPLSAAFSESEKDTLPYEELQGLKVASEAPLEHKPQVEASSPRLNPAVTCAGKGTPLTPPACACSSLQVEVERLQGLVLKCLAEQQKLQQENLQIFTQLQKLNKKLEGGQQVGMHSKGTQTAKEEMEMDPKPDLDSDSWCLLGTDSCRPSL

Experiment [2] deals with T1, HA Nercc (1-391) (human). Briefly: anti-FLAG immunoprecipitation from HEK293 cells, anti-HA blot (figure legend).

We go through one substance from US20060052582A1, “Identification of inhibitors of mitosis” (priority 2002, published 2006).

Results are given in words; binding and its absence hold for the method and conditions named. Some entries that bind do so weakly or less than the wild type. Sequences can lack the tags named with a protein.

Regarding “FLAG Nercc (338-739) (from UniProt Q8TD19 338-739)”, the binding entry in the experiment with HA Nercc (1-391) (human) [1] and with HA Nercc (1-391) (human) [2] was “binds” throughout.
